Reference: patent EP0331184A2, “Peptide equivalents of non-peptides and methods of design therefor” (THE BOARD OF TRUSTEES OF THE UNIVERSITY OF ALABAMA FOR ITS …, priority 1988, dated 1989)
Part of at least one peptide drawing is inferred or uncertain, most often the ends.

System: dog kidney Na⁺K⁺ATPase
Assay: ³H-ouabain radioreceptor assay
Assay type: binding
Settings: 10⁻⁴M concentrations
Experimental: The linked-enzyme, spectrophotometric assay measuring hydrolysis of ATP was performed as described in Example 1. The ³H-ouabain radioreceptor assay was performed in 0.5 ml of 50 mM Tris HCl (pH 7.4) containing 0.5 mM EDTA, 4 mM MgSO₄, 80 mM NaCl, 5mM ATP, 7.5 ug of dog kidney Na⁺K⁺ATPase (Sigma), 7.8 nCi of [21, 22-³H]-ouabain (specific activity = 15.6 Ci/mmol; Amersham), and 0.1% gelatin. Test samples were incubated for 2 hr at 37°C; ATP and ³H-ouabain were absent during the first hour but present during the second hour. The glycopeptide 1-39 used in these experiments was isolated to homogeneity as described in Fig. 6; eOLP refers to the partially purified, endogenous ouabain-like substance described in the text, and its amounts are expressed as ul of acetonitrile/TFA. Samples of these preparations, both in acetonitrile/0.1% trifluoroacetic acid, were evaporated under a stream of nitrogen gas and redissolved in 0.1% gelatin in preparation for assay. ³H-ouabain bound to Na⁺K⁺ATPase was recovered on Whatman GF/F glass microfiber filters using vacuum filtration. The filters had been soaked in 0.3% aqueous polyethylenimine for 2 hr immediately before filtration. The filters were added to scintillation fluid in vials and counted in a liquid scintillation spectrometer. […]

CC[C@H](C)[C@H](NC(=O)[C@H](Cc1ccc(O)cc1)NC(=O)[C@@H](NC(=O)[C@H](CCCNC(=N)N)NC(=O)[C@@H](N)CC(=O)O)C(C)C)C(=O)N[C@@H](Cc1c[nH]cn1)C(=O)N1CCC[C@H]1C(=O)N[C@@H](Cc1ccccc1)C(=O)O [angiotensin II]
displacing activity in the ³H-ouabain radioreceptor assay: no displacing activity
